Source: article PMC5691656 (Viruses, 2017)
No constants are given. Whether binding was seen depends on the method and setting.

Biological target: T1, Canarypox virus CNP058 lacking the C-terminal transmembrane domain (residues 1–143) (canarypox virus) (UniProt Q6VZT9)
T1 sequence: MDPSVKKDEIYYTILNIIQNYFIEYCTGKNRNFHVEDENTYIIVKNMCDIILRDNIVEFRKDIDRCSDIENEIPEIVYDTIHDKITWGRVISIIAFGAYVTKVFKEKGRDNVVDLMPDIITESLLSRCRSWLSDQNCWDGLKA
Experiment: SEC

## Canarypox virus CNP058 lacking the C-terminal transmembrane domain (residues 1–143) (from UniProt Q6VZT9 1-143) (domain or fragment)
  binding: no binding
